Values of other authors in patent publication US20230405068A1, “RADIATION-INDUCED FIBROSIS TREATMENT” (Handelsselskabet af 20.10.2020 ApS, priority 2020, published 2023).
At least one compound was matched to its structure with a doubt left.

Tested on: radiation-induced dermatitis
Details: clinical trial; topical, 0.1%

With C[C@H]1C[C@@H]2[C@H]([C@@H](O)C[C@@]3(C)[C@H]2CC[C@]3(O)C(=O)CO)[C@@]2(C)C=CC(=O)C=C12 [methylprednisolone] as the compound, how does the “effect on radiation-induced dermatitis” value read?
The value was “ameliorated but did not prevent”.
